Each structure is given as a SMILES string. The list does not hold the whole screen: it is rich in T/C values a quarter to a half above the control, in often repeated tests (any T/C) and in doses without a T/C. Further doses and runs are listed elsewhere. T/C gives the treated animals as a percentage of the vehicle group. Some entries give survivors of the animals treated and no T/C: the source holds a T/C of zero for them, seemingly a mark for toxic or unscored doses. Some doses without a T/C left all or most animals alive at the check, yet need not have been tolerated: the source hardly ever lists a survival T/C far under the control, and the zero likely stands for such cases as well. Survivors were counted at the toxicity check, usually on the fifth day, unless a day is given; later deaths do not show. Schedules are NCI's codes, taken here to give the interval after Q, in days (D) or hours (H), and the number of doses after X. Some doses were run more than once; the values are given in rising order. Some molecules as drawn cover several salts, stereoisomers or complexes of the source; a dose is that of the sample tested. Signs of the kind (2×) say how often a value occurs here. For survival time, the PubChem record calls one and a half times the control and up active, and a quarter to a half above the control has no call in these data; cut-offs in other NCI protocols can differ. Some T/C values carry the count of animals alive at the toxicity check (mostly the fifth day); without a count, all were alive then.

For this assay, the system named is P388 leukemia ip, CD2F1 mice, survival T/C. Nature of the assay: NCI In Vivo Anticancer Drug Screen. Data for tumor model P388 Leukemia (intraperitoneal) in CD2F1 (CDF1) mice. To be noted: T/C endpoint: median survival time, higher T/C = longer survival.
Setting [1] is: dose: 200.0 mg/kg/injection, schedule: Q01DX009 (ip), vehicle: other.
The mark [2] stands for this setting: dose: 120.0 mg/kg/injection, schedule: Q01DX005 (ip), vehicle: Klucel (hydroxypropylcellulose) (HPC).
The mark [3] stands for this setting: dose: 100.0 mg/kg/injection, schedule: Q01DX005 (ip), vehicle: Klucel (hydroxypropylcellulose) (HPC).
[4] abbreviates: dose: 200.0 mg/kg/injection, schedule: Q01DX005 (ip), vehicle: Klucel (hydroxypropylcellulose) (HPC).
The mark [5] stands for this setting: dose: 200.0 mg/kg/injection, schedule: Q01DX009 (ip), vehicle: saline with Tween-80.
Setting [6] is: dose: 50.0 mg/kg/injection, schedule: Q01DX009 (ip), vehicle: other.

Turning to `COc1ccc2c(c1)C(=O)C1(CC2)OC1c1cccnc1` (stereo unspecified), the T/C under setting [1] was 129 % of control.

On to `CCc1nc(N)nc(N)c1-c1ccc(Cl)c(N=[N+]=[N-])c1`, for which the T/C (dose: 50.0 mg/kg/injection, schedule: Q01DX009 (ip), vehicle: distilled water + Tween-80) was 132 % of control and the T/C (dose: 100.0 mg/kg/injection, schedule: Q01DX009 (ip), vehicle: distilled water + Tween-80) was 125 % of control. For the same molecule, the survivor count under setting [2] is given as 4 of 6 and the survivor count (dose: 240.0 mg/kg/injection, schedule: Q01DX005 (ip), vehicle: Klucel (hydroxypropylcellulose) (HPC)) was 0 of 6.

As for `CN=C(NC)c1ccc(NC(=O)Nc2ccc(C)c(NC(=O)Nc3ccc(C(=NC)NC)cc3)c2)cc1`, the survivor count reads like this: (dose: 12.5 mg/kg/injection, schedule: Q01DX005 (ip), vehicle: suspension in saline) 3 of 6; (dose: 25.0 mg/kg/injection, schedule: Q01DX005 (ip), vehicle: suspension in saline) 0 of 6; (dose: 50.0 mg/kg/injection, schedule: Q01DX005 (ip), vehicle: suspension in saline) 0 of 6; (dose: 100.0 mg/kg/injection, schedule: Q01DX005 (ip), vehicle: suspension in saline) 0 of 6; (dose: 200.0 mg/kg/injection, schedule: Q01DX005 (ip), vehicle: suspension in saline) 0 of 6.

Consider `CNC(=O)Nc1ccc(/C(C)=N/NC(N)=S)cc1`, for which the survivor count (dose: 240.0 mg/kg/injection, schedule: Q01DX005 (ip), vehicle: saline with Tween-80) is 6 of 6.

In the case of `c1ccc(C[N+]23CCC(CC2)C3c2ccccc2)cc1` (stereo unspecified), the survivor count is 0 of 6 (dose: 30.0 mg/kg/injection, schedule: Q01DX005 (ip), vehicle: saline); 0 of 6 (dose: 60.0 mg/kg/injection, schedule: Q01DX005 (ip), vehicle: saline); 0 of 6 (dose: 120.0 mg/kg/injection, schedule: Q01DX005 (ip), vehicle: saline); 0 of 6 (dose: 240.0 mg/kg/injection, schedule: Q01DX005 (ip), vehicle: saline).

Consider `CCN(CC)CCNC(=O)c1cc(Cl)c(C(=O)NO)cc1OC`, for which the survivor count is, setting by setting: (dose: 50.0 mg/kg/injection, schedule: Q01DX005 (ip), vehicle: Klucel (hydroxypropylcellulose) (HPC)) 0 of 6; under setting [3], 0 of 6; under setting [4], 0 of 6.

`Cc1cc(C)nc(C2=C(O)c3ccccc3C2=O)c1`: the survivor count is 5 of 6 (dose: 60.0 mg/kg/injection, schedule: Q01DX005 (ip), vehicle: Klucel (hydroxypropylcellulose) (HPC)) and 3 of 6 under setting [2].

Regarding `COC1=CC2(C=CC1=O)CCC(=O)O2` (stereo unspecified), the survivor count by setting is: (dose: 50.0 mg/kg/injection, schedule: Q01DX005 (ip), vehicle: saline with Tween-80) 6 of 6; (dose: 50.0 mg/kg/injection, schedule: Q01DX009 (ip), vehicle: saline with Tween-80) 0 of 6; (dose: 100.0 mg/kg/injection, schedule: Q01DX005 (ip), vehicle: saline with Tween-80) 0 of 6; (dose: 100.0 mg/kg/injection, schedule: Q01DX009 (ip), vehicle: saline with Tween-80) 0 of 6; (dose: 200.0 mg/kg/injection, schedule: Q01DX005 (ip), vehicle: saline with Tween-80) 0 of 6 and 1 of 6; under setting [5], 0 of 6.

Take `Cc1coc2c1C(=O)C(=O)c1c-2ccc2c1CCCC2(C)CO` (stereo unspecified) (tested in a mixture with another compound): under setting [5], the survivor count is on record as 3 of 3.

As for `[N-]=[N+]=CC(=O)OCC1NC(=O)C(COC(=O)C=[N+]=[N-])NC1=O` (stereo unspecified), the survivor count by setting is: (dose: 0.78 mg/kg/injection, schedule: Q01DX009 (ip), vehicle: other) 0 of 6 (2×); (dose: 1.56 mg/kg/injection, schedule: Q01DX009 (ip), vehicle: other) 0 of 6 (2×); (dose: 3.12 mg/kg/injection, schedule: Q01DX009 (ip), vehicle: other) 0 of 6; (dose: 3.13 mg/kg/injection, schedule: Q01DX009 (ip), vehicle: other) 0 of 6; (dose: 6.25 mg/kg/injection, schedule: Q01DX009 (ip), vehicle: other) 0 of 6 (2×); (dose: 12.5 mg/kg/injection, schedule: Q01DX009 (ip), vehicle: other) 0 of 4 (2×) and 0 of 6 (2×). Further, the survivor count was 0 of 4 (2×) (dose: 25.0 mg/kg/injection, schedule: Q01DX009 (ip), vehicle: other); 0 of 4 (2×) under setting [6]; 0 of 4 (2×) (dose: 100.0 mg/kg/injection, schedule: Q01DX009 (ip), vehicle: other); 0 of 4 (2×) under setting [1]. Further, the T/C under setting [6] was 129 and 137 % of control.

In the case of `CCOC(=O)C(C#N)(CCC(=NC(C)(C)C)Nc1ccccc1C#N)CCC(=NC(C)(C)C)Nc1ccccc1C#N` (stereo unspecified), the survivor count under setting [5] is given as 6 of 6.

Turning to `N#CN=[N+]([O-])c1ccc([N+](=O)[O-])cc1`, the survivor count is 6 of 6 (dose: 12.5 mg/kg/injection, schedule: Q04DX003 (ip), vehicle: Klucel (hydroxypropylcellulose) (HPC)); 6 of 6 (dose: 25.0 mg/kg/injection, schedule: Q04DX003 (ip), vehicle: Klucel (hydroxypropylcellulose) (HPC)); 0 of 6 (dose: 50.0 mg/kg/injection, schedule: Q04DX003 (ip), vehicle: Klucel (hydroxypropylcellulose) (HPC)); 3 of 6 (dose: 100.0 mg/kg/injection, schedule: Q04DX003 (ip), vehicle: Klucel (hydroxypropylcellulose) (HPC)); 0 of 6 (dose: 200.0 mg/kg/injection, schedule: Q04DX003 (ip), vehicle: Klucel (hydroxypropylcellulose) (HPC)).

For the molecule `CCOC(=O)CCC(NC(=O)c1ccc(NCc2ccc3nc(N)nc(N)c3c2C)cc1)C(=O)OCC` (stereo unspecified), the survivor count runs as follows: (dose: 0.06 mg/kg/injection, schedule: Q01DX009 (ip), vehicle: saline + alcohol) 6 of 6; (dose: 0.11 mg/kg/injection, schedule: Q01DX009 (ip), vehicle: saline + alcohol) 6 of 6. Further, the T/C reads like this: (dose: 0.5 mg/kg/injection, schedule: Q01DX001 (ip), vehicle: saline + alcohol) 130 and 132 % of control; (dose: 1.0 mg/kg/injection, schedule: Q01DX001 (ip), vehicle: saline + alcohol) 128 and 137 % of control.

With `CCCCNC(=O)OCc1ccc(NCCN(CC)CC)c2c(=O)c3ccccc3sc12`, the T/C is, setting by setting: (dose: 6.25 mg/kg/injection, schedule: Q01DX005 (ip), vehicle: distilled water + Tween-80) 135 % of control; (dose: 12.5 mg/kg/injection, schedule: Q01DX005 (ip), vehicle: distilled water + Tween-80, evaluated on day 30) 103, 112, 116 % of control; (dose: 12.5 mg/kg/injection, schedule: Q01DX005 (ip), vehicle: distilled water + Tween-80, evaluated on day 35) 104 % of control; (dose: 25.0 mg/kg/injection, schedule: Q01DX005 (ip), vehicle: distilled water + Tween-80, evaluated on day 30) 114 and 128 % of control; (dose: 25.0 mg/kg/injection, schedule: Q01DX005 (ip), vehicle: distilled water + Tween-80, evaluated on day 35) 129 % of control [5 of 6 alive]. The survivor count was 6 of 6 (dose: 25.0 mg/kg/injection, schedule: Q01DX005 (ip), vehicle: distilled water + Tween-80); 3 of 6 and 6 of 6 (dose: 50.0 mg/kg/injection, schedule: Q01DX005 (ip), vehicle: distilled water + Tween-80); 0 of 6 (dose: 100.0 mg/kg/injection, schedule: Q01DX005 (ip), vehicle: distilled water + Tween-80); 0 of 6 (dose: 200.0 mg/kg/injection, schedule: Q01DX005 (ip), vehicle: distilled water + Tween-80).

For the molecule `C=CC(C)(C)c1ccc(O)c(CC=C(C)C)c1`, the survivor count is on record as 1 of 5 under setting [3] and 0 of 5 under setting [4].

Consider `CC(C)NCC(O)c1cc(Br)c(Br)s1` (stereo unspecified), for which, where the note is “dose: 200.0 mg/kg/injection, schedule: Q01DX009 (ip), vehicle: saline”, the survivor count was 1 of 6.

`CCN1C(C)N1P(=S)(OC1CC(C)(C)N(O)C(C)(C)C1)OC1CC(C)(C)N(O)C(C)(C)C1` (stereo unspecified): the survivor count under setting [4] is on record as 6 of 6.

The values are drawn from PubChem BioAssay AID330 (DTP/NCI, 2004).
